These are yes or no findings as the source states them, for the method shown. Tags and fused reporters may be left off the sequences shown.
T1: His-tagged Human ACVR2B (human) (UniProt Q13705)
T1 sequence (looked up): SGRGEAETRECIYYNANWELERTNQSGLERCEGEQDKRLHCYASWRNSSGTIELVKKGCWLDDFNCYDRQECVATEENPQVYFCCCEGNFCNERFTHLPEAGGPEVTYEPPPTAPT

T2: His-tagged Mouse ACVR2B (mouse) (UniProt P27040)
T2 sequence (looked up): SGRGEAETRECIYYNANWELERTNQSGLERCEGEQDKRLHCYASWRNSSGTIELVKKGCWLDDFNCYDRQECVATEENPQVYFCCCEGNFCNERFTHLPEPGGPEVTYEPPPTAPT


Assays:
[1] = target: T1, His-tagged Human ACVR2B (human); assay: ELISA, coated antigen, 10 pt
[2] = target: T2, His-tagged Mouse ACVR2B (mouse); assay: ELISA, coated antigen, 10 pt

Binder | binding [1] | binding [2]
372_A04 (antibody, V domains shown) VH: EVQLLESGGGLVQPGGSLRLSCAASGFTFDSYSMNWVRQAPGKGLEWVSGINYNSGYTSYADSVKGRFTISRDNSKNTLYLQMNSLRAEDTAVYYCARSANWHDTALDYWGQGTLVTVSS VL: DIQMTQSPSSLSASVGDRVTITCRASQSILTYLNWYQQKPGKAPKLVIYAATSRASGVPSRFSGSGSGTDFTLTISSLQPEDFATYYCQQSYETPLTFGGGTKVEIK | no binding (tested: 1 uM top) | no binding (tested: 1 uM top)
365_E02 (antibody, V domains shown) VH: EVQLLESGGGLVQPGGSLRLSCAASGFTFSSYSMNWVRQAPGKGLEWVANINYNGGYTSYADSVKGRFTISRDNSKNTLYLQMNSLRAEDTAVYYCAKSATWHDTHLDYWGQGTLVTVSS VL: DIQMTQSPSSLSASVGDRVTITCRASQSIISYLNWYQQKPGKAPKLLIYAATSRASGVPSRFSGSGSGTDFTLTISSLQPEDFATYYCQQSYENPLTFGGGTKVEIK | no binding (tested: 1 uM top) | no binding (tested: 1 uM top)
372_F08 (antibody, V domains shown) VH: EVQLLESGGGLVQPGGSLRLSCAASGFTFSDYSMNWVRQAPGKGLEWVSNINYNSGYTGYADSVKGRFTISRDNSKNTLYLQMNSLRAEDTAVYYCARSANWHDTALDYWGQGTLVTVSS VL: DIQMTQSPSSLSASVGDRVTITCRASQSILTYVNWYQQKPGKAPKLVIYAATSRASGVPSRFSGSGSGTDFTLTISSLQPEDFATYYCQQSYDTPLTFGGGTKVEIK | no binding (tested: 1 uM top) | no binding (tested: 1 uM top)
372_F03 (antibody, V domains shown) VH: EVQLLESGGGLVQPGGSLRLSCAASGFTFSSYGMNWVRQAPGKGLEWVAGINYNGGYTSYADSVKGRFTISRDNSKNTLYLQMNSLRAEDTAVYYCARSANWHDTALDYWGQGTLVTVSS VL: DIQMTQSPSSLSASVGDRVTITCRASQSILSYLNWYQQKPGKAPKLVIYAATSRASGVPSRFSGSGSGTDFTLTISSLQPEDFATYYCQQSYDTPLTFGGGTKVEIK | no binding (tested: 1 uM top) | no binding (tested: 1 uM top)
373_B04 (antibody, V domains shown) VH: EVQLLESGGGLVQPGGSLRLSCAASGFTFSSYGMNWVRQAPGKGLEWVAGINYNSGYKGYADSVKGRFTISRDNSKNTLYLQMNSLRAEDTAVYYCARSANWHDTALDYWGQGTLVTVSS VL: DIQMTQSPSSLSASVGDRVTITCRASQSILTYLNWYQQKPGKAPKLLIYAATSRASGVPSRFSGSGSGTDFTLTISSLQPEDFATYYCQQSYETPLTFGGGTKVEIK | no binding (tested: 1 uM top) | no binding (tested: 1 uM top)
368_D10 (antibody, V domains shown) VH: EVQLLESGGGLVQPGGSLRLSCAASGFTFDSYGMNWVRQAPGKGLEWVAGINYNSGYTSYADSVKGRFTISRDNSKNTLYLQMNSLRAEDTAVYYCARSATWHDTALDYWGQGTLVTVSS VL: DIQMTQSPSSLSASVGDRVTITCRASQSILSYLNWYQQKPGKAPKLVIYAATSRASGVPSRFSGSGSGTDFTLTISSLQPEDFATYYCQQSYDSPLTFGGGTKVEIK | no binding (tested: 1 uM top) | no binding (tested: 1 uM top)
373_C07 (antibody, V domains shown) VH: EVQLLESGGGLVQPGGSLRLSCAASGFTFDSYSMNWVRQAPGKGLEWVAGINYNSGYTSYADSVKGRFTISRDNSKNTLYLQMNSLRAEDTAVYYCARGANWHDTHLDYWGQGTLVTVSS VL: DIQMTQSPSSLSASVGDRVTITCRASQSILTYLNWYQQKPGKAPKLVIYAATSRASGVPSRFSGSGSGTDFTLTISSLQPEDFATYYCQQSYETPLTFGGGTKVEIK | no binding (tested: 1 uM) | no binding (tested: 1 uM)

Other lines, results leading:

binding [1] | binding [2] | Binder
no binding (tested: 1 uM top) | no binding (tested: 1 uM top) | 374_B06 (antibody, V domains shown) VH: EVQLLESGGGLVQPGGSLRLSCAASGFTFDSYSMNWVRQAPGKGLEWVAGINYNSGYKGYADSVKGRFTISRDNSKNTLYLQMNSLRAEDTAVYYCARSANWHDTHLDYWGQGTLVTVSS VL: DIQMTQSPSSLSASVGDRVTITCRASQSILTYVNWYQQKPGKAPKLLIYAATSRASGVPSRFSGSGSGTDFTLTISSLQPEDFATYYCQQSYDTPLTFGGGTKVEIK
no binding (tested: 1 uM top) | no binding (tested: 1 uM top) | 374_B04 (antibody, V domains shown) VH: EVQLLESGGGLVQPGGSLRLSCAASGFTFSSYSMNWVRQAPGKGLEWVSNINYNSGYTGYADSVKGRFTISRDNSKNTLYLQMNSLRAEDTAVYYCARSANWHDTALDYWGQGTLVTVSS VL: DIQMTQSPSSLSASVGDRVTITCRASQSIVSYLNWYQQKPGKAPKLLIYAVTSRASGVPSRFSGSGSGTDFTLTISSLQPEDFATYYCQQSYESPLTFGGGTKVEIK
no binding (tested: 1 uM) | no binding (tested: 1 uM) | 373_H03 (antibody, V domains shown) VH: EVQLLESGGGLVQPGGSLRLSCAASGFTFSSYSMNWVRQAPGKGLEWVSGINYNSGYKSYADSVKGRFTISRDNSKNTLYLQMNSLRAEDTAVYYCARGANWHDTALDYWGQGTLVTVSS VL: DIQMTQSPSSLSASVGDRVTITCRASQSILSYLNWYQQKPGKAPKLLIYATTSRASGVPSRFSGSGSGTDFTLTISSLQPEDFATYYCQQSYENPLTFGGGTKVEIK
no binding (tested: 1 uM top) | no binding (tested: 1 uM top) | 374_C03 (antibody, V domains shown) VH: EVQLLESGGGLVQPGGSLRLSCAASGFTFDSYSMNWVRQAPGKGLEWVSGINYNSGYTSYADSVKGRFTISRDNSKNTLYLQMNSLRAEDTAVYYCARSANWHDTALDYWGQGTLVTVSS VL: DIQMTQSPSSLSASVGDRVTITCRASQSILTYLNWYQQKPGKAPKLLIYAATSRASGVPSRFSGSGSGTDFTLTISSLQPEDFATYYCQQSYDSPLTFGGGTKVEIK
no binding (tested: 1 uM top) | no binding (tested: 1 uM top) | 374_D08 (antibody, V domains shown) VH: EVQLLESGGGLVQPGGSLRLSCAASGFTFDSYGMNWVRQAPGKGLEWVSGINYNSGYTGYADSVKGRFTISRDNSKNTLYLQMNSLRAEDTAVYYCARSANWHDTHLDYWGQGTLVTVSS VL: DIQMTQSPSSLSASVGDRVTITCRASQSILTYLNWYQQKPGKAPKLLIYAATSRHSGVPSRFSGSGSGTDFTLTISSLQPEDFATYYCQQSYESPLTFGGGTKVEIK
no binding (tested: 1 uM top) | no binding (tested: 1 uM top) | 373_D04 (antibody, V domains shown) VH: EVQLLESGGGLVQPGGSLRLSCAASGFTFDSYSMNWVRQAPGKGLEWVSGINYNSGYKGYADSVKGRFTISRDNSKNTLYLQMNSLRAEDTAVYYCARSANWHDTALDYWGQGTLVTVSS VL: DIQMTQSPSSLSASVGDRVTITCRASQSILSYLNWYQQKPGKAPKLLIYAATSRHSGVPSRFSGSGSGTDFTLTISSLQPEDFATYYCQQSYDSPLTFGGGTKVEIK
no binding (tested: 1 uM top) | no binding (tested: 1 uM top) | 374_C06 (antibody, V domains shown) VH: EVQLLESGGGLVQPGGSLRLSCAASGFTFDDYSMNWVRQAPGKGLEWVSSINYNSGYKGYADSVKGRFTISRDNSKNTLYLQMNSLRAEDTAVYYCARSANWHDTALDYWGQGTLVTVSS VL: DIQMTQSPSSLSASVGDRVTITCRASQSILTYVNWYQQKPGKAPKLLIYAATSRASGVPSRFSGSGSGTDFTLTISSLQPEDFATYYCQQSYNSPLTFGGGTKVEIK
no binding (tested: 1 uM top) | no binding (tested: 1 uM top) | 373_D10 (antibody, V domains shown) VH: EVQLLESGGGLVQPGGSLRLSCAASGFTFDSYSMNWVRQAPGKGLEWVSNINYNSGYKGYADSVKGRFTISRDNSKNTLYLQMNSLRAEDTAVYYCARSANWHDTALDYWGQGTLVTVSS VL: DIQMTQSPSSLSASVGDRVTITCRASQSILSYVNWYQQKPGKAPKLLIYAATSRASGVPSRFSGSGSGTDFTLTISSLQPEDFATYYCQQSYDLPLTFGGGTKVEIK
no binding (tested: 1 uM top) | no binding (tested: 1 uM top) | 376_C06 (antibody, V domains shown) VH: EVQLLESGGGLVQPGGSLRLSCAASGFTFSSYGMNWVRQAPGKGLEWVAGINYNGGYTSYADSVKGRFTISRDNSKNTLYLQMNSLRAEDTAVYYCARSATWHDTALDYWGQGTLVTVSS VL: DIQMTQSPSSLSASVGDRVTITCRASQSILSYLNWYQQKPGKAPKLVIYAATSRASGVPSRFSGSGSGTDFTLTISSLQPEDFATYYCQQSYDSPLTFGGGTKVEIK
no binding (tested: 1 uM top) | no binding (tested: 1 uM top) | 374_C08 (antibody, V domains shown) VH: EVQLLESGGGLVQPGGSLRLSCAASGFTFDSYGMNWVRQAPGKGLEWVSGINYNSGYKSYADSVKGRFTISRDNSKNTLYLQMNSLRAEDTAVYYCARSATWHDTALDYWGQGTLVTVSS VL: DIQMTQSPSSLSASVGDRVTITCRASQSILSYVNWYQQKPGKAPKLLIYAVTSRASGVPSRFSGSGSGTDFTLTISSLQPEDFATYYCQQSYDSPLTFGGGTKVEIK
no binding (tested: 1 uM) | no binding (tested: 1 uM) | 373_G08 (antibody, V domains shown) VH: EVQLLESGGGLVQPGGSLRLSCAASGFTFDSYSMNWVRQAPGKGLEWVSNINYNGGYTSYADSVKGRFTISRDNSKNTLYLQMNSLRAEDTAVYYCARGANWHDTALDYWGQGTLVTVSS VL: DIQMTQSPSSLSASVGDRVTITCRASQSILTYLNWYQQKPGKAPKLLIYAATSLASGVPSRFSGSGSGTDFTLTISSLQPEDFATYYCQQSYDSPLTFGGGTKVEIK
